# Assay results: PMC10517019
# Protein sequences, listed by entry. Tags and fused reporters are not part of them. Lines headed by an entry give the natural chain unless they say otherwise; changes in a name come on top.
# UniProt Q9UKT8: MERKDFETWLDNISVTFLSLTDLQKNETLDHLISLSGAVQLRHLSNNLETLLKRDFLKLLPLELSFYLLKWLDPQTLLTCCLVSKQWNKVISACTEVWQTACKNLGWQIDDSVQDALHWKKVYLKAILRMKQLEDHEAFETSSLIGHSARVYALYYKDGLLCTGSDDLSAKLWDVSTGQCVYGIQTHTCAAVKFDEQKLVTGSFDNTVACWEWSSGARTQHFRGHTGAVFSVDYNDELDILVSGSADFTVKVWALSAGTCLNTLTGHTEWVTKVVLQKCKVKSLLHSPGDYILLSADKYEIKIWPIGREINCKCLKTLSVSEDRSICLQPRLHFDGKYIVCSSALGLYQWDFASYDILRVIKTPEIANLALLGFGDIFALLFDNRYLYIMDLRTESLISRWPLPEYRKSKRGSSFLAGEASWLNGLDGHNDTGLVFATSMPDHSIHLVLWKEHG
# UniProt P26038: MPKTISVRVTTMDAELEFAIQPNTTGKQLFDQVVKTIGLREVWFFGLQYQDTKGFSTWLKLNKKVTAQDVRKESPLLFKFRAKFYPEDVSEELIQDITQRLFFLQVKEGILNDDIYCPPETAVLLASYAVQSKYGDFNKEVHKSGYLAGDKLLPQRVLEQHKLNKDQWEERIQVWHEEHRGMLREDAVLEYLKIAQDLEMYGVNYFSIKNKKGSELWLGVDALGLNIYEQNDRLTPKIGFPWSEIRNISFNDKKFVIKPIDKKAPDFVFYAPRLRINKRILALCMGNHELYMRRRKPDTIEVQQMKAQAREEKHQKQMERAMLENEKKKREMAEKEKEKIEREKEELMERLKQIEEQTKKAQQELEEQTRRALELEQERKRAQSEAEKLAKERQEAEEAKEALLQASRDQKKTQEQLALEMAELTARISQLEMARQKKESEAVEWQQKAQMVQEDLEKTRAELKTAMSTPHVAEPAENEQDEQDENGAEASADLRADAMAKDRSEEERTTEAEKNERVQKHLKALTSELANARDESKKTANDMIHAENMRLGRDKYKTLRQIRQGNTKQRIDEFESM
# Target: F-box motif-deleted FBXW2 mutant (FLAG-∆F-FBXW2) (UniProt Q9UKT8)
# Assay: co-IP; MCF7 cells transfected with vector, FLAG-FL-FBXW2 or FLAG-∆F-FBXW2 36 h, 5 µM MG132 6 h; anti-FLAG immunoprecipitation, immunoblot (Fig. 4E); also FLAG-FBXW2 with or without 5 µM AKT inhibitor 12 h or AKT silencing (Fig. 6D)
substance,measurement,value
"Membrane-organizing extension spike protein (Moesin), endogenous (from UniProt P26038 1-577)",binding,binds

# Results are given in words; binding and its absence hold for the method and conditions named. In cells and extracts the contact can be indirect. A result given as binding can be weak or reduced; the word gives no strength.
